Experimental data reported in PubChem BioAssay (NCATS).
“And” between values parts separate entries of the source, which are not always exact repeats. Equal entries are not always repeated. Some of the results follow. These are further read-outs of the screen, such as a control signal, another cell line or another target. No call is given for them. For some of these results: The list favours compounds with an active or inconclusive main result. The note in brackets gives the kind of curve behind each potency; many fits are weak.

By UniProt entry, the sequences of proteins in these tests, tags left out. Where a name states a change or a piece, a line headed by the entry shows the natural chain unless it says otherwise.
UniProt P21964: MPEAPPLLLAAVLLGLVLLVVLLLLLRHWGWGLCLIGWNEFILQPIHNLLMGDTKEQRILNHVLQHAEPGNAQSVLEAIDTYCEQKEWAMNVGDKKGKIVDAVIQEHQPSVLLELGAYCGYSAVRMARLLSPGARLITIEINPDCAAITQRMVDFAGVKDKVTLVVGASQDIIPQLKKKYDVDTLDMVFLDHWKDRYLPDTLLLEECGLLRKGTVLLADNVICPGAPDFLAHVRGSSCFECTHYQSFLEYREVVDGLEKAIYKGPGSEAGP
UniProt P50135: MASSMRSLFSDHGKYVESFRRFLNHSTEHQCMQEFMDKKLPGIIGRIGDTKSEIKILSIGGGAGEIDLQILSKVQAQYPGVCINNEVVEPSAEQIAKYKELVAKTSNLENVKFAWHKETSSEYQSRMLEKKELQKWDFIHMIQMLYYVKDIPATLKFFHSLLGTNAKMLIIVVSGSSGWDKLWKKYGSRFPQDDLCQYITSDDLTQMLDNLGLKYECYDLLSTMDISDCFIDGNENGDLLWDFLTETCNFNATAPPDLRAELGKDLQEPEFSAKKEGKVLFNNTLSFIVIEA

Tests used:
[1] = qHTS Assay for Inhibitors of PDE-IV (AID 607); conditions: HEK293 ACTOne CNG channel cells, membrane potential fluorescence; measured here: parental cell counter-screen
Method in brief: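 The readout is membrane depolarisation from a cAMP-sensing CNG channel, detected with a potential dye at ex 535/em 590. Cells were HEK293-derived (endogenous PDE-IV) at 1000 cells/well, titrated up to 22.9 uM final.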

[2] = qHTS Assay for Lipid Storage Modulators (AID 1519); conditions: Drosophila S3 cells, BODIPY lipid droplet/cell ratio, laser cytometry, cells loaded with oleic acid
Method in brief: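 Cells seeded at 5,000 per well were treated with compounds over a concentration series and loaded with oleic acid (400 uM, as added). Lipid droplet fluorescence (488 nm excitation, 500-530 nm channel) was read by laser-scanning cytometry and normalized to 20 uM Triacsin C.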

[3] = A High-Content qHTS Against Drug Library for the Identification of Small Molecules that Inhibit DYT1 Early Onset Primary Dystonia-Associated Cell Pathology (AID 1645839); conditions: HEK293 Flp-In EGFP-delE TorsinA, punctate imaging, 48 h; measured here: cell count cytotoxicity
Method in brief: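 Flp-In T-REx 293 cells with tetracycline-inducible EGFP-delE hTOR1A (WT EGFP-hTOR1A as reference), 800 cells/well; compound added with tetracycline, 48 h at 37 C. Fixed, permeabilized cells imaged; %pathology (punctate TorsinA) primary, cell count counterscreen.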

[4] = qHTS Assay for Modulators of Human Peripheral Myelin Protein 22 (PMP22) Expression/Activity (AID 1967); conditions: Cell-based PMP22 reporter, dual-color luciferase ratio
Method in brief: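 Mouse MSC80 Schwann cells carrying Pmp22 promoter–green click beetle luciferase plus EF-alpha–red luciferase control, dosed 24 h at 37 °C. Dual-filter luminescence, overlap-corrected; %Activity from green/red ratio normalised to untreated cells, concentration-response curves fitted.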

[5] = biological target: Catechol O-methyltransferase (Homo sapiens) (UniProt P21964); assay: Confirmatory Screen for Target Class Profiling of Small Molecule Inhibitors of Methyltransferases (AID 1745852); conditions: MTase-Glo luminescence, SAH detection, recombinant enzyme; measured here: COMT inhibition potency
[6] = biological target: Histamine N-methyltransferase (Homo sapiens) (UniProt P50135); assay: as above; conditions: MTase-Glo luminescence, SAH detection, recombinant enzyme; measured here: HNMT inhibition potency
[7] = NCATS anti-infectives library activity on the primary C. elegans qHTS viability assay (AID 1745855); conditions: C. elegans worm area imaging, day 7; measured here: worm number, day 3
Method in brief: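 Viability is taken from GFP fluorescence of PE254-GFP-FLuc C. elegans imaged by laser cytometry over 7 days. Ten L1 worms per well grow at 21 °C on TOP10 E. coli capsules with titrated compound; levamisole marks toxicity.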

[8] = S16 Schwann cell PMP22 intronic element beta-lactamase assay (AID 624044); conditions: S16 rat Schwann cells, PMP22 element beta-lactamase FRET, 24 h
Method in brief: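 Rat S16 Schwann cells with beta-Lac driven by a PMP22 intronic element, compound-treated 24 h at 37 °C. LiveBLAzer FRET B/G read: 460 nm normalized to potassium clavulanate vs DMSO; 535 nm FRET as viability; concentration-effect curves classified.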

[9] = qHTS drug screen for cell cycle checkpoint inhibitors in PARPi-resistant BRCA-mutant ovarian cancer cell lines. (AID 1963452); conditions: PEO1/OlaR viability, CellTiter-Glo luminescence, 96 h
Method in brief: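 PEO1, PEO4 and PEO1/OlaR ovarian cancer cells, 600 per well, exposed 96 h at 37C to a dilution series. Viability read by CellTiter-Glo luminescence, normalized to DMSO and empty wells; activity summarized as Z-AUC.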

[10] = qHTS for identification of novel therapeutic agents for treatment of microphthalmiaassociated transcription factor (MiT) renal cell carcinoma (RCC) (AID 1963991); conditions: CellTiter-Glo, 48 h; for z-score: stronger effect = lower value;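 on z-score: curves scaled with 100% = DMSO viability and 0% = empty wells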
Method in brief: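 UOK109/UOK124/UOK145 (TFE3 fusions, three partners); 500 cells/well; MIPE v4.0, 1912 cpds, 11 conc.; 48 h, 37 C; CellTiter-Glo, 15 min RT; lum. Norm.: DMSO 100%, empty 0%.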

[11] = qHTS Validation Assay for Iinhibitors of HIV-1 Budding by Blocking the Interaction of PTAP/TSG101 (AID 485342); conditions: TSG101-PTAP binding, fluorescence polarization, 4-point titration; measured here: FITC channel readout
Method in brief: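 Tsg101 binding domain (10 uM) with FITC-labeled PTAP peptide (50 nM) in HEPES pH 7.5 buffer, 20 min at r.t. with compounds. Binding measured by fluorescence polarization.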

[12] = measured here: cell count channel max response
[13] = measured here: cell number channel AC50
[14] = measured here: lipid (BODIPY) channel AC50
[15] = measured here: lipid channel max response
[16] = measured here: red reporter channel AC50, EF-alpha promoter control reporter in MSC80 mouse Schwann cells
[17] = measured here: 530 nm viability channel
[18] = measured here: PEO1 parental viability
[19] = TFE3-RCC UOK109 viability, measured here: UOK109 Z-AUC
[20] = TFE3-RCC viability, measured here: UOK124 Z-AUC
[21] = TFE3-RCC viability, measured here: UOK145 Z-AUC
[22] = TFE3-RCC viability, measured here: UOK145 cell viability
[23] = TFE3-RCC viability, measured here: UOK124 cell viability

## CN1CCC[C@@H]1CCO[C@](C)(c1ccccc1)c1ccc(Cl)cc1
[1]
  AC50: 12.6 µM [rising, partial curve, poor fit] and 7.94 µM [rising, single point] and 15.8 µM [rising, partial curve]
[2]; [12]
  max response: 96.2%
[2]; [13]
  AC50: 35.5 µM [rising, partial curve]
[2]; [14]
  AC50: 35.5 µM [rising, partial curve]
[2]; [15]
  max response: 125%
[3]
  AC50: 7.08 µM [falling, partial curve]

## Oc1cc2c(c(Cl)c1O)CCNCC2c1ccccc1 (stereo unspecified)
[2]; [12]
  max response: 51.1%
[2]; [13]
  AC50: 22.4 µM [rising, partial curve, poor fit]
[2]; [14]
  AC50: 22.4 µM [rising, partial curve, poor fit]
[2]; [15]
  max response: 52.7%
[4]; [16]
  AC50: 37.9 µM [falling, partial curve]
[5]
  IC50: 24.3 µM [rising, partial curve]
[6]
  IC50: 19.3 µM [falling, partial curve]

## CC(=O)CCCCn1c(=O)c2c(ncn2C)n(C)c1=O
[2]; [12]
  max response: 33.3%
[2]; [13]
  AC50: 10 µM [falling, partial curve, poor fit]
[2]; [14]
  AC50: 10 µM [falling, partial curve, poor fit]
[2]; [15]
  max response: 37.5%
[4]; [16]
  AC50: 84.9 µM [falling, single point]
[7]
  AC50: 5.15 µM [falling, partial curve, poor fit]

## Cc1cccc(N(C)C(=S)Oc2ccc3ccccc3c2)c1
[2]; [12]
  max response: 37.6%
[2]; [13]
  AC50: 28.2 µM [rising, partial curve, poor fit]
[2]; [14]
  AC50: 31.6 µM [rising, single point]
[2]; [15]
  max response: 60.6%
[8]; measured here: 460 nm blue channel
  AC50: 3.01 µM [falling, full curve, poor fit]
[8]; [17]
  AC50: 4.47 µM [falling, full curve, poor fit]
[3]
  AC50: 35.5 µM [rising, single point]
[9]; [18]
  AC50: 21.9 µM [falling, single point]
[10]; [19]
  z-score: 0.192
[10]; [20]
  z-score: 0.64
[10]; [21]
  z-score: 2.18
[10]; [22]
  AC50: 37.2 µM [falling, partial curve, poor fit]

## COc1cc(C[C@H]2C(=O)OC[C@@H]2Cc2ccc(OC)c(OC)c2)ccc1O
[2]; [12]
  max response: 61.1%
[2]; [13]
  AC50: 1.78 µM [rising, full curve]
[2]; [14]
  AC50: 11.2 µM [falling, full curve, poor fit]
[2]; [15]
  max response: -60.8%
[7]
  AC50: 25.8 µM [rising, partial curve, poor fit]

## OCCN(CCO)c1nc(N2CCCCC2)c2nc(N(CCO)CCO)nc(N3CCCCC3)c2n1
[2]; [12]
  max response: 61.7% and 16.7% and 62.4%
[2]; [13]
  AC50: 35.5 µM [rising, single point] and 14.1 µM [falling, partial curve, poor fit]
[2]; [14]
  AC50: 35.5 µM [rising, partial curve, poor fit] and 31.6 µM [rising, single point] and 14.1 µM [falling, partial curve, poor fit]
[2]; [15]
  max response: 78.4% and 39.1% and 65.2%
[4]; measured here: green reporter channel AC50, mouse Pmp22 promoter in mouse Schwann cells
  AC50: 33.8 µM [falling, full curve]
[4]; [16]
  AC50: 42.6 µM [falling, full curve]
[11]
  AC50: 31.6 µM [falling, partial curve]
[8]; [17]
  AC50: 14.1 µM [rising, partial curve]
[3]
  AC50: 5.62 µM [falling, full curve, poor fit]
[10]; [19]
  z-score: 1.11
[10]; [20]
  z-score: 0.282
[10]; [23]
  AC50: 37.2 µM [falling, single point]
[10]; [21]
  z-score: 0.12

## O=c1ccc2ccc(O)c(O)c2o1
[2]; [12]
  max response: -5.71%
[2]; [13]
  AC50: 0.00501 µM [falling, full curve, poor fit]
[2]; [14]
  AC50: 3.55 µM [falling, full curve, poor fit]
[2]; [15]
  max response: -0.0858%
[4]; [16]
  AC50: 53.6 µM [falling, partial curve]
[5]
  IC50: 2.43 µM [rising, full curve]
[10]; [19]
  z-score: 0.178
[10]; [20]
  z-score: 0.103
[10]; [21]
  z-score: 0.507
[10]; [22]
  AC50: 14.8 µM [falling, partial curve, poor fit]

## C=CCN1CCc2c(cc(O)c(O)c2Cl)C(c2ccccc2)C1 (stereo unspecified)
[2]; [12]
  max response: 52.4%
[2]; [13]
  AC50: 7.94 µM [falling, full curve]
[2]; [14]
  AC50: 7.94 µM [falling, full curve]
[2]; [15]
  max response: 53.4%
[4]; [16]
  AC50: 23.9 µM [falling, full curve]
[5]
  IC50: 17.2 µM [rising, partial curve]

## COc1cc2c(cc1OC)[C@@H]1C(=O)c3ccc4c(c3O[C@@H]1CO2)C=CC(C)(C)O4
[2]; [12]
  max response: 56%
[2]; [13]
  AC50: 0.794 µM [rising, full curve, poor fit]
[2]; [14]
  AC50: 0.891 µM [falling, full curve, poor fit]
[2]; [15]
  max response: -38.6%
[9]; [18]
  AC50: 0.219 µM [falling, full curve]
[9]; measured here: PEO4 viability
  AC50: 0.692 µM [falling, full curve, poor fit]
[10]; [19]
  z-score: -0.0241
[10]; [20]
  z-score: -0.00519
[10]; [23]
  AC50: 0.0469 µM [falling, full curve, poor fit]
[10]; [21]
  z-score: -0.105
[10]; [22]
  AC50: 37.2 µM [falling, single point]
